From publication PMC6412653
No constants are given. Whether binding was seen depends on the method and setting. Binding seen in cells or lysates may run through a third protein. Some binding calls cover weakened binding; strength is not graded here.

By UniProt entry, the sequences of proteins in these tests, tags left out. Where a name states a change or a piece, a line headed by the entry shows the natural chain unless it says otherwise.
UniProt O76324: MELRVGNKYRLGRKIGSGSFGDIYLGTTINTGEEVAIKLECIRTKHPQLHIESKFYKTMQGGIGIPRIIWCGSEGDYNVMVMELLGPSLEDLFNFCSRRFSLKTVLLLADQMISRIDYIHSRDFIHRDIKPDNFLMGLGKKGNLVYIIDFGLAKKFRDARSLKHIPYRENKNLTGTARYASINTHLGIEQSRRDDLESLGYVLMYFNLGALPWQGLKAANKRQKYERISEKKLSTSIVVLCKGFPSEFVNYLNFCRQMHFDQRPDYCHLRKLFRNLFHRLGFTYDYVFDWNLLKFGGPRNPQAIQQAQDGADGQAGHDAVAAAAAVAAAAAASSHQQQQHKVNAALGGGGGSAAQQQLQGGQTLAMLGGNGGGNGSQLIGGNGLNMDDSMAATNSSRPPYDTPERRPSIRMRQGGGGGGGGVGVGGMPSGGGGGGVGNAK

How the values were obtained:
[1] = target: DBT K217N-MYC (Drosophila) (UniProt O76324); assay: co-IP; head extracts of 100 flies per genotype collected at ZT7, DBT-MYC expressed with timGAL4; DBT-MYC precipitated with mouse anti-MYC IgG and gamma-bind beads; immunoblot with anti-DBTC and anti-BDBT
[2] = target: DBT R193N-MYC (Drosophila) (UniProt O76324); assay: as above

binding [1]: binds | binding [2]: binds
B1: BDBT (protein, UniProt Q9VDE4 1-286)
chain: MDWYVGTEWEDKNRGLAKKVIGLQFTEMDKPTIISTVEFSVNKKATNLGGRPSKYLVSDESATYPQKHSLEMGTSLTAVDCYLELLLQQFVPGETAACSITTKTGERIEFELKLEKIVKNTQVEKLSAAEIYEVALRLKESGVATFKTFPKFAFDYFVRAAKLLITYKPFDKLTKKTNGINGQAVEELFIQIQTNLAACLLQEKRYEHVIYHTQFVETEESPSEKSIYRRALAYYHLKEFAKAQATIERMPNYEEKREFSKLRDNIAVSWKDSKAHYKEVVQRMFS
